Earlier results in US9399037B2, “Triazinone compounds for treating diseases resulting from infestation with parasitic protozoans” (Bayer Intellectual Property GmbH, priority 1999, dated 2016).
For at least one compound, name, drawing or mass did not settle the structure.

Test system: Neospora caninum
Settings: dogs; treatment with sulfadiazine and clindamycin together; cited from earlier work

Q: Which success of treatment does the source give for `CCC[C@@H]1C[C@@H](C(=O)N[C@@H]([C@H]2O[C@H](SC)[C@H](O)[C@@H](O)[C@H]2O)[C@H](C)Cl)N(C)C1` [clindamycin] here?
A: Its success of treatment is “only has a chance of success when it starts very early”.
